Values from PubChem BioAssay AID602196 (INSERM, 2012).
Here is one part, drawn at random, of about 23,000 deposited reagents. In the full data, 455 (2%) got an active call. 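Active includes both protection and sensitisation; some change values fall well beyond the stated -50 to +50 range.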 Further read-outs or replicates are left out here. The record does not give: the amount of reagent.

Aim: 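Knock-downs that protect lung cancer cells from cisplatin or sensitise them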
System: human A549 lung cancer cells
Reagents: siRNA pair against human genes
Duration: 48 h transfection before cisplatin; time from cisplatin to read-out not stated
Challenge: cisplatin at a dose killing half of control-siRNA cells; exact dose and duration not given
Detection: 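Cisplatin cell death as a shift from the 50% death seen with control siRNA; siRNAs toxic or growth-blocking alone scored 0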
Direction: two-siRNA summed score (-2 to +2): higher = both siRNAs protect from cisplatin killing; -2 means both sensitise; mean protection from cisplatin (shift in death) and protection from cisplatin (shift in death), siRNA C: higher = protection from cisplatin killing
Active means: 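Each siRNA scores 0 if harmful alone by LDH or WST-1, otherwise +1 if it reduces and -1 if it increases cisplatin killing; a gene is active when both siRNAs agree (sum +2 or -2)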
Meaning of the calls: active = both siRNAs shift cisplatin killing the same way; inactive = no consistent shift, or siRNA harmful alone

Target gene	two-siRNA summed score (-2 to +2)	mean protection from cisplatin (shift in death) (%)	protection from cisplatin (shift in death), siRNA C (%)	Call
MGC57820	0	6.8	7.3	inactive
TMEM144	0	-1.7	9.6	inactive
POU2AF1	0	10	6.4	inactive
BAGE4	0	13	-0.1	inactive
LOC220429	0	19.6	22.1	inactive
APIP	0	11.4	24.6	inactive
VPREB3	0	0.3	-6.5	inactive
CDC7	-2	-22.9	-21.7	active
AFF4	0	-5.1	-2.5	inactive
H4C2	0	7	1.3	inactive
EN1	-1	-7.4	-18.3	inactive
MSS51	0	7.4	7.4	inactive
FLJ44076	0	20.8	25.6	inactive
PRH1	0	3.1	-12	inactive
FGF11	-1	-8.6	-13.3	inactive
ALMS1P1	0	0	-6.2	inactive
RAC3	-1	-6.1	-14.9	inactive
LOC442430	1	6.5	-6.8	inactive
CRYGB	1	1.8	14.4	inactive
LSM10	1	-5.3	14.4	inactive
PITHD1	0	6.8	4.8	inactive
UXT	0	2.5	6.7	inactive
ANXA4	0	1.7	3.1	inactive
ANXA3	0	22.8	45.2	inactive
EIF2AK1	1	11.1	23.1	inactive
SAXO1	0	21.7	-1.5	inactive
LOC441599	1	7.8	3.1	inactive
TMEM204	0	-3.5	-3	inactive
LOC387885	0	7.6	24.1	inactive
DHRSX	1	13.7	38.7	inactive
EPB41	0	-7.7	-11.8	inactive
ZNF77	0	20.7	42.2	inactive
PEX5L	0	-20	-3.1	inactive
CLDN15	1	15.5	22.7	inactive
TPGS2	0	8.1	7.9	inactive
PLAAT1	1	11.2	0.6	inactive
HLA-F-AS1	0	3.5	-1.2	inactive
CLNK	-1	-2.8	10.2	inactive
RAB33B	0	20.6	6.7	inactive

Reformatted: 4 of the entries above
{"Target gene": "PEX5L", "two-siRNA summed score (-2 to +2)": 0, "mean protection from cisplatin (shift in death) (%)": -20, "protection from cisplatin (shift in death), siRNA C (%)": -3.1, "Call": "inactive"}
{"Target gene": "CLDN15", "two-siRNA summed score (-2 to +2)": 1, "mean protection from cisplatin (shift in death) (%)": 15.5, "protection from cisplatin (shift in death), siRNA C (%)": 22.7, "Call": "inactive"}
{"Target gene": "TPGS2", "two-siRNA summed score (-2 to +2)": 0, "mean protection from cisplatin (shift in death) (%)": 8.1, "protection from cisplatin (shift in death), siRNA C (%)": 7.9, "Call": "inactive"}
{"Target gene": "PLAAT1", "two-siRNA summed score (-2 to +2)": 1, "mean protection from cisplatin (shift in death) (%)": 11.2, "protection from cisplatin (shift in death), siRNA C (%)": 0.6, "Call": "inactive"}
